The source of these data is PubChem BioAssay AID222 (DTP/NCI, 2004).

The assay has as its system C57BL/6 mice, intracerebral ependymoblastoma, median survival T/C. In words: NCI In Vivo Anticancer Drug Screen. Data for tumor model Ependymoblastoma (intracerebral) in C57BL/6 mice. The conditions noted are these: T/C endpoint: median survival time, schedule: Q01DX005 (ip), vehicle: saline, higher T/C = longer survival. The procedure: The antitumor activity of compounds was measured in mice bearing transplantable tumors. Survival or tumor size were measured and the results are expressed as the measurement made in the treated group (T) divided by the measurement made in the vehicle treated control group (C). The tumor model used in this assay is Ependymoblastoma (intracerebral) in C57BL/6 mice

Molecules are shown by their SMILES. The list is a part of this screen's results and no random one: its compounds were picked by chemical class. Other doses and runs of a compound may be missing. T/C: endpoint of the treated group in % of that of the vehicle group. For survival time, this PubChem deposit counts one and a half times the control or more as active, and values a quarter to a half above the control carry no call in these data; other NCI protocols may use other cut-offs. Some T/C values are marked as having no survivor count here; that says nothing about deaths at the dose. Schedules are NCI's codes, read here as Q, the interval in days (D) or hours (H), X, the number of doses.

For the compound `CN(CCCl)CCCl`, the T/C runs as follows: (dose: 0.03 mg/kg/injection) 102 % of control [survivor count not shown]; (dose: 0.06 mg/kg/injection) 96 % of control [survivor count not shown]; (dose: 0.12 mg/kg/injection) 107 % of control [survivor count not shown]; (dose: 0.25 mg/kg/injection) 87 % of control [survivor count not shown].
